Reference: PubChem BioAssay AID1347423 (Functional Genomics Laboratory (NCATS/FGL), 2020)
Screen size: about 52,000 sequences; about 210 (0.4%) were called active.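 Rule for the calls: active = gene whose silencing raises cell survival under the drug, median off-target-corrected z-score across its silencing RNAs 2 or more; inactive = the rest.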 Some of the results follow.

Experiment: Resistance to Poly (ADP-Ribose) Polymerase inhibitor: Gene Identification via Genome-wide siRNA Screen
Conditions: mouse BRCA2 R2336H ES cells, olaparib, CellTiter-Glo viability; hits give high values
Summary of the method: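 Mouse BRCA2 R2336H ES cells were reverse-transfected with siRNA (20 nM final), treated at 48 h with 500 nM olaparib, and read by CellTiter-Glo after 72 h. Scores: MAD-based z per siRNA, median per gene, seed off-target correction.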

Row | Sequence | z-score
1 | GGAUAUUCUUCUUAAGCAGTT against 9430057O19Rik | inactive: -0.988
2 | GGGUCGAAAUUGGGAUCCATT against Vps45 | inactive: -0.588
3 | GGACUCUAAGUUGUGAAUUTT against B430203M17Rik | inactive: -1
4 | GCACCAUGUCAGGAAGUGUTT against B230315M08Rik | active: 3.45
5 | GGAUAAAGAAGGACUCAAATT against Tpbpb | inactive: -0.0307
6 | GGUGGAAGGCUUUUUCUACTT against Olfr1104 | inactive: 0.659
7 | GCAAUGUACUGGUAUAAUUTT against B230315F11Rik | inactive: -0.587
8 | CCCAUGUUUAUGUUGCUGATT against Olfr467 | inactive: 0.197
9 | GCUAGUUGGAGCUAGAUUATT against E130320D18 | inactive: 0.013
10 | GCCAACCAUCUUUUGACAGTT against 6530418L21Rik | inactive: -0.663
11 | GGAGUGGUGUGUCAUUGAUTT against Impact | inactive: -0.052
12 | GCUUCUUAUGGUCACUUAATT against Asb12 | inactive: -2.48
13 | GGAAGAGGUCUUUAAUACATT against Kif4 | inactive: 0.0924
14 | CCGUGGUUUCUACAGUGUUTT against Ppp4c | inactive: -0.563
15 | GGUAGAAGAUUCAAAAUCUTT against Canx | inactive: 0.549
16 | GAUUCUCAUCUCAAUAAGCTT against Serpinb9g | inactive: -0.197
17 | GGCUACAAGAGCUUGCUCUTT against Dna2l | inactive: -1.28
18 | GGAAGACAUCUGAAACGAUTT against 2510005D08Rik | inactive: 0.753
19 | GGUGUCAGGGCAGUGUAAATT against Bach1 | inactive: 0.0246
20 | CGACUCUCCAUCCUUAACATT against Dlx4 | inactive: -2.44
21 | GCUCAGCUUGCUUCACUCATT against 1810049O03Rik | inactive: -2.64
22 | GCUGUGAUCUGAGGAGACUTT against Igf1 | inactive: 0.5
23 | GGUGUGAUAAUGAAACCAATT against A630029G22Rik | inactive: -0.73
24 | CCCUCAAGUCGCACCUUUUTT against C130007D14 | inactive: -1.45
25 | GGUCAUUAUUGUCAUCUACTT against Tmem9 | inactive: -0.334
26 | GGUUCACAUCCUCCUCAGATT against Twist2 | inactive: 0.354

Row | Sequence | z-score
27 | GCCAAUGAUGUAGCAAAUUTT against Slc20a1 | active: 2.1
28 | GGACUGAAAGACUUGCUCGTT against Hprt1 | inactive: -0.69
29 | GGUCAUUGGCACCAACAAGTT against Tgfbi | inactive: 1.1
30 | CGUUUUCUCCUUCGAUCUUTT against Sema6c | inactive: 2.63
31 | CCUAAUUAAGGUUUCUGUUTT against C8a | inactive: -0.0444
32 | GGCGAUACCUAAAACAUCUTT against Noxa1 | inactive: 3.65
33 | CCCGGGUGUUUUUGCCUAUTT against Kcnc4 | inactive: -1.83
34 | GCCAUAAGUUAUGAUGUGGTT against A930004D23Rik | inactive: -0.376
35 | GGCCUAGAUCAAUACCAAGTT against 4930433I11Rik | inactive: 0.938
36 | GGUUCCACUCAUUGUCUCGTT against Fndc5 | inactive: 0.312
37 | GGAACACUAAAACUCAACUTT against Gpr146 | inactive: -0.575
38 | GGCUCAAGCAUUAAUUAAUTT against LOC208943 | inactive: 0.0156
39 | GGGUAUGACAACAAACUUCTT against Gabrg2 | inactive: 1.29
40 | GGAUAUACACAACAGGCACTT against Wbp5 | inactive: 0.204
41 | GGAUCAAGAAACCAGACUATT against Mrpl23 | inactive: -2.16
42 | GGCAUCAAAGACAAUACAATT against V1rc6 | inactive: -0.854
43 | GGAGCUGAGGAGAAAGACATT against CRAD-L | inactive: -0.541
44 | GCUCACCCUAUUUGCUGCCTT against Kcnj15 | inactive: 0.763
45 | GGCUGCUAAUUGGAUUUUUTT against Ccnj | inactive: 0.246
46 | GGGCUACAUGCCAUAUUUATT against Swap70 | inactive: -0.783
47 | GGAAUUCCCAUAAAUCAGUTT against BC004012 | inactive: -1.05
48 | GCUCUCUUGUGCUCCAACATT against Olfr531 | inactive: -1.01
49 | CCUGCUUGCCAACACCAUATT against Slc39a13 | inactive: 0.395
50 | CGGUGCACAACGUACCAAUTT against Npn3 | inactive: -0.555
51 | GGUCGAAUGACUCAUCUUATT against Hs3st3a | inactive: 0.926
52 | CGAGGAUGCCCUAAGGGUUTT against Lrrtm3 | inactive: 0.0169

Reprinted at random: three records from the list.
Row | Sequence | z-score
29 | GGUCAUUGGCACCAACAAGTT against Tgfbi | inactive: 1.1
37 | GGAACACUAAAACUCAACUTT against Gpr146 | inactive: -0.575
33 | CCCGGGUGUUUUUGCCUAUTT against Kcnc4 | inactive: -1.83

(listing goes on)

Row | Sequence | z-score
53 | CUACGAGCCACUUCUGAGATT against Krt2-25 | inactive: -0.587
54 | GGAGGAAAACAAACCACAGTT against Tpbpa | inactive: -0.317
55 | GCCCUUGUUACAGAUUCUCTT against V1rd17 | inactive: 0.00518
56 | GGUGCAAUUAUUUGAUCAUTT against Ptprb | inactive: 1.12
57 | GCUUAUAAUGCCAUUACUUTT against Rad21 | inactive: -3.44
58 | GGAAGACGGCAACUAUCCATT against Cyp2c50 | inactive: 0.192
59 | GCUACUGCAGUAUACAUUGTT against Olfr869 | inactive: 1.15
60 | GGGAAAGAGAAAUUUAAAGTT against Kcne4 | inactive: 2.17
61 | GGUUCAUCAAACUUGCUUGTT against Olfr1312 | inactive: -0.0246
62 | GGACUAUCCAGGAAUCGUGTT against Sdbcag84 | inactive: 0.945
63 | CCAACAUCGAGCUAGCCACTT against Psma5 | inactive: -2.4
64 | GGCUCUACAUUCCAGAGGUTT against Slc35c2 | inactive: 0.143
65 | GCCCGUGUGCCCAAGAAAATT against Pde6d | inactive: 0.785
66 | GGAGGAAUUCAUUAGAAACTT against Psmc1 | inactive: -2.23
67 | GGUGGACCUAGGUAACAUGTT against Cyp2d9 | inactive: -1.55
68 | GGCACUUCAACAGCAGUUATT against 5830418K08Rik | inactive: 1.48
69 | GGACCUACAUAACAAGCUUTT against BC051244 | inactive: -1.14
70 | GGGAAAGUGACUCCUGCUATT against 3110037I16Rik | inactive: -0.265
71 | CCCAAAGGUCUAAUGUAAATT against Prok2 | inactive: -0.399
72 | GGAUGAAAGCCAUUAAGUUTT against T2bp | inactive: -0.817
73 | GGUCAUUCAUAAAGAUUGATT against Kcnma1 | inactive: 1.27
74 | CCCUGGCUGAGUGCUUUGUTT against Olfr199 | inactive: -0.39
75 | CGGUGUUAAAUCCAUGAGUTT against 6430706D22Rik | inactive: 0.961
76 | GGAGCUACGAGGAAUUGGUTT against Wdr9 | inactive: -0.134
77 | CCAAGAAUCAAGCUGUGAATT against Arpc5l | inactive: -0.185
78 | GGAUUUUUCCAUAAAAACCTT against B3galt3 | inactive: 0.22

Some of the entries above, set out differently.
GGUUCAUCAAACUUGCUUGTT against Olfr1312
  z-score: inactive: -0.0246
CCCUGGCUGAGUGCUUUGUTT against Olfr199
  z-score: inactive: -0.39

Carrying on:

Row | Sequence | z-score
79 | GCUUUACGGUCAAUUAGCCTT against Nr2e1 | inactive: 0.915
80 | GGUGGUUGAUCUGCUAAGGTT against 2810046L04Rik | inactive: 0.503
81 | CCCUCACAUUCGUCUACCUTT against Gpr24 | inactive: 0.75
82 | GGUGGAUGUGUCAGAAUACTT against Alox15 | inactive: -1.6
83 | GCACAAGGUUCAAAAAGGCTT against F630043A04Rik | inactive: -0.729
84 | UAGUCAUCUUCAUUCUCCUTT against Olfr1251 | inactive: -0.542
85 | GGUGGUAAAUCGAAUUGUUTT against 2500001K11Rik | inactive: 0.385
86 | GGAAAAGGUCAUUAUCAUUTT against B230358A15Rik | inactive: 1
87 | GGUAAAUCAUGUUUACUCUTT against 2610034H20Rik | inactive: -0.861
88 | GCAUAACAUGCUCUUCCAUTT against Mtmr1 | inactive: -0.365
89 | GCAUAAUAAGCCAAUUCUGTT against Crsp6 | inactive: -0.242
90 | GGGAUUCUCCAAAAGGAAGTT against Arhgap6 | inactive: 1.13
91 | GCCUCGGGUAGUGAAGUCUTT against Zc3hdc3 | inactive: 0.973
92 | GGAACAAGCUGUCUUAGAGTT against Olfr157 | inactive: 0.499
93 | GGAAUGGUUUGGUGAGUUUTT against Pramel1 | inactive: 1.35
94 | GUCGCUCUUCUAAAACUUUTT against 1110003E08Rik | inactive: 0.927
95 | GGUAGACUUCAUCCUAGGCTT against Olfr62 | inactive: 0.519
96 | GCUUGGAAGGGACUUCAAUTT against Trp73 | inactive: 0.336
97 | GGAUAAUGGUAUCUACUUCTT against Cd79b | inactive: -0.408
98 | GGAGUGAGACAAUUCUCACTT against Sprr2k | inactive: 0.0887
99 | GCGUGGUCUUAACUGCUCATT against Zfp406 | inactive: -2.88
100 | GCAAGUAGAAACCCUUAAUTT against 4933425F03Rik | inactive: -1.65
101 | GGUUGAUGAUAGCUCUGAATT against Opn1mw | inactive: -1.5
102 | GGUACAAAGCCAUUGUACGTT against Grpr | inactive: 0.188
103 | GGUCUUUCCAAUGUUCACATT against Nos1 | inactive: -0.182
104 | GGUGAUUCGUCAGAAGCUGTT against Gpr84 | inactive: 0.504

Part of the list above, as labelled records:
GCUUGGAAGGGACUUCAAUTT against Trp73
  z-score: inactive: 0.336
GGAUAAUGGUAUCUACUUCTT against Cd79b
  z-score: inactive: -0.408
GGAGUGAGACAAUUCUCACTT against Sprr2k
  z-score: inactive: 0.0887
GCGUGGUCUUAACUGCUCATT against Zfp406
  z-score: inactive: -2.88
